Test system: Aspergillus niger
Assay: Antifungal activity against Aspergillus niger F-1119 at 0.1% after 48 to 72 hrs by agar disk diffusion technique
Format: functional

## NYSTATIN
  inhibition zone (IZ): 20 mm

Reference: ChEMBL document CHEMBL2424637, “Nucleophilic substitution reactions of 1,4-naphthoquinone and biologic properties of novel S-, S,S-, N-, and N,S-substituted 1,4-naphthoquinone derivatives” (2013)
